Article PMC12168302
Results are given in words; binding and its absence hold for the method and conditions named. Binding seen in cells or lysates may run through a third protein. Some binding calls cover weakened binding; strength is not graded here.

The chains behind the UniProt entries cited, without tags or fusion partners.
UniProt Q16665: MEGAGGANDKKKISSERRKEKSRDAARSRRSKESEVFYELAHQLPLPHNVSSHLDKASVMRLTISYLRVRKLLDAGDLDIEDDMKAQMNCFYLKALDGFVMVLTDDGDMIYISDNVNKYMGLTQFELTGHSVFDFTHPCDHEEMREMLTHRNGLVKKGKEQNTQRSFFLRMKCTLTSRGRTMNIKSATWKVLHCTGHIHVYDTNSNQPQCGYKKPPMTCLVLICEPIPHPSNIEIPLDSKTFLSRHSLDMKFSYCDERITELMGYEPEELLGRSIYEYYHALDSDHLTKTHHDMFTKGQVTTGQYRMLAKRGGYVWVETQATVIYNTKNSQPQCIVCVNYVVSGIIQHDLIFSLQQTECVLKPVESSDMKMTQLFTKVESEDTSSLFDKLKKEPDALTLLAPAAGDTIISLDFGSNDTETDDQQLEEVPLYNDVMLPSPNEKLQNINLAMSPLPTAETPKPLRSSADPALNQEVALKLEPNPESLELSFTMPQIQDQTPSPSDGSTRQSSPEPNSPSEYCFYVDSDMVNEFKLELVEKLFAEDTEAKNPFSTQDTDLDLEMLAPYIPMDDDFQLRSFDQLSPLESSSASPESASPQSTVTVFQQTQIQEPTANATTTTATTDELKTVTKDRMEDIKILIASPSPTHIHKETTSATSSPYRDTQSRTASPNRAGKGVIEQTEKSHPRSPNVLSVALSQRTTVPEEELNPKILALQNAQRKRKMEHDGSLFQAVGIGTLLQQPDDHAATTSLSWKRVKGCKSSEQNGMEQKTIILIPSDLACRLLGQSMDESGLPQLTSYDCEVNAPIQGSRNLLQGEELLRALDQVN

Target: hypoxia-inducible factor 1 alpha (HIF1A) (human (endogenous in HCT116 and RKO)) (UniProt Q16665)
Experiment: co-IP; immunoprecipitation with anti-HIF1A from HCT116 and RKO cells; 1.0 mg protein with antibody overnight at 4 °C, 20 µL beads 2 h at 4 °C; WB with anti-HIF-1α and anti-ALDOC

binding: binds
B1: Aldolase C (ALDOC) (protein, UniProt P09972 1-364)
chain: MPHSYPALSAEQKKELSDIALRIVAPGKGILAADESVGSMAKRLSQIGVENTEENRRLYRQVLFSADDRVKKCIGGVIFFHETLYQKDDNGVPFVRTIQDKGIVVGIKVDKGVVPLAGTDGETTTQGLDGLSERCAQYKKDGADFAKWRCVLKISERTPSALAILENANVLARYASICQQNGIVPIVEPEILPDGDHDLKRCQYVTEKVLAAVYKALSDHHVYLEGTLLKPNMVTPGHACPIKYTPEEIAMATVTALRRTVPPAVPGVTFLSGGQSEEEASFNLNAINRCPLPRPWALTFSYGRALQASALNAWRGQRDNAGAATEEFIKRAEVNGLAAQGKYEGSGEDGGAAAQSLYIANHAY
